Measured values published in PMC7729981.
Results are given in words; binding and its absence hold for the method and conditions named. Binding seen in cells or lysates may run through a third protein. Some entries that bind do so weakly or less than the wild type. For part of these data: Where a sequence is shown, tags or fusion partners need not be part of it.

Chains of the proteins cited; added tags and fusions are not shown.
UniProt Q9UM11: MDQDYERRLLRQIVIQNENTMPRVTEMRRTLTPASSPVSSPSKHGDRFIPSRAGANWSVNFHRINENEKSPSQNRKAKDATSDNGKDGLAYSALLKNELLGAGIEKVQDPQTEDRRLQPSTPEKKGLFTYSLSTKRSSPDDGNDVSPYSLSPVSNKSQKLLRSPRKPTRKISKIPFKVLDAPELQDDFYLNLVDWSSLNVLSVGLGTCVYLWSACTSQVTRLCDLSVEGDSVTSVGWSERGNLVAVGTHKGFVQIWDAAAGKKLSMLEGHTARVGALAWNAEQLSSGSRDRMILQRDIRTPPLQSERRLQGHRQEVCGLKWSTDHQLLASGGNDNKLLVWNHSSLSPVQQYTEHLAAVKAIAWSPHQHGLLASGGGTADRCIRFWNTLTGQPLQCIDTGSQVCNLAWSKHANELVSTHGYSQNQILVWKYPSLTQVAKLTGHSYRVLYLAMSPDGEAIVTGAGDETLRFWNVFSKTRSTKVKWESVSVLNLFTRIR

Legend:
[1] = target: T1, HA-PAH (HA-tagged phenylalanine hydroxylase) (UniProt P00439); assay: co-IP; HA-PAH and Flag-Cdh1 co-transfected in HEK293 cells; 48 h after transfection lysed in 50 mM Tris-HCl pH 7.6, 150 mM NaCl, 1 mM EDTA, 1% Triton X-100; about 3 mg lysate with HA or Flag antibody at 4 °C overnight, protein agarose beads; Western blot with the reciprocal antibody
T1 sequence: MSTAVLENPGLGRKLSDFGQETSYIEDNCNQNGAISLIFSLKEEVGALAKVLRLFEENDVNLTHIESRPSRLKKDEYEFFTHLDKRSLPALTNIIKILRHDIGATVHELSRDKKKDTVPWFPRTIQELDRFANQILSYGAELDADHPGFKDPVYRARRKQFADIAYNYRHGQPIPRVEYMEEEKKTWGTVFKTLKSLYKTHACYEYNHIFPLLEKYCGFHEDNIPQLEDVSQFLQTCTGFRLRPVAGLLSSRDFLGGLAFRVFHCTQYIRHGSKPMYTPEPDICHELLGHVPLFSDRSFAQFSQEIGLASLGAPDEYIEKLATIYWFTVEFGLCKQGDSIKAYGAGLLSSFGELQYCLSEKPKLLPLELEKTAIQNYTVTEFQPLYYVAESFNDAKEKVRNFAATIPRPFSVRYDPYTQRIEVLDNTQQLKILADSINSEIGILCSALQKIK

[2] = target: Flag-Cdh1 (Flag-tagged Cdh1, coactivator of APC/C) (UniProt Q9UM11); assay: as above
[3] = target: Cdh1 (FZR1), endogenous (human (endogenous in HHSteCs)) (UniProt Q9UM11); assay: co-IP; endogenous proteins in HHSteCs, cells treated with 20 µM MG132 for 8 h; about 6 mg lysate immunoprecipitated with anti-Cdh1 antibody, immunoblotted with PAH antibody

## Flag-Cdh1 (Flag-tagged Cdh1, coactivator of APC/C) (from UniProt Q9UM11 1-496)
[1]
  binding: binds

B1: HA-PAH (HA-tagged phenylalanine hydroxylase) (enzyme, UniProt P00439 1-452)
chain: MSTAVLENPGLGRKLSDFGQETSYIEDNCNQNGAISLIFSLKEEVGALAKVLRLFEENDVNLTHIESRPSRLKKDEYEFFTHLDKRSLPALTNIIKILRHDIGATVHELSRDKKKDTVPWFPRTIQELDRFANQILSYGAELDADHPGFKDPVYRARRKQFADIAYNYRHGQPIPRVEYMEEEKKTWGTVFKTLKSLYKTHACYEYNHIFPLLEKYCGFHEDNIPQLEDVSQFLQTCTGFRLRPVAGLLSSRDFLGGLAFRVFHCTQYIRHGSKPMYTPEPDICHELLGHVPLFSDRSFAQFSQEIGLASLGAPDEYIEKLATIYWFTVEFGLCKQGDSIKAYGAGLLSSFGELQYCLSEKPKLLPLELEKTAIQNYTVTEFQPLYYVAESFNDAKEKVRNFAATIPRPFSVRYDPYTQRIEVLDNTQQLKILADSINSEIGILCSALQKIK
[2]
  binding: binds

B2: Phenylalanine hydroxylase (PAH), endogenous (enzyme, UniProt P00439 1-452)
chain: MSTAVLENPGLGRKLSDFGQETSYIEDNCNQNGAISLIFSLKEEVGALAKVLRLFEENDVNLTHIESRPSRLKKDEYEFFTHLDKRSLPALTNIIKILRHDIGATVHELSRDKKKDTVPWFPRTIQELDRFANQILSYGAELDADHPGFKDPVYRARRKQFADIAYNYRHGQPIPRVEYMEEEKKTWGTVFKTLKSLYKTHACYEYNHIFPLLEKYCGFHEDNIPQLEDVSQFLQTCTGFRLRPVAGLLSSRDFLGGLAFRVFHCTQYIRHGSKPMYTPEPDICHELLGHVPLFSDRSFAQFSQEIGLASLGAPDEYIEKLATIYWFTVEFGLCKQGDSIKAYGAGLLSSFGELQYCLSEKPKLLPLELEKTAIQNYTVTEFQPLYYVAESFNDAKEKVRNFAATIPRPFSVRYDPYTQRIEVLDNTQQLKILADSINSEIGILCSALQKIK
[3]
  binding: binds
